# From patent US10294275B2 (Yale University, priority 2012, dated 2019)
# Assay: peptide synthesis
# Settings: late stage modification step
substance,measurement,value
tribromovancomycin,step yield,35%
